Publication PMC2762165
No constants are given. Whether binding was seen depends on the method and setting. Binding seen in cells or lysates may run through a third protein. A result given as binding can be weak or reduced; the word gives no strength. Sequences can lack the tags named with a protein.

Target: KlSir4-Flag (Kluyveromyces lactis)
Experiment: co-IP; whole-cell lysate of K. lactis with KlSIR2-HA, KlSIR4-Flag and myc-KlSUM1 alleles (wild-type LRY2285; also sum1Δ LRY2158 and sir4Δ LRY2282); anti-HA, anti-Flag or anti-myc overnight at 4°C, Protein A agarose; immunoblot for the tags

binding: binds
B1: KlSir2-HA (enzyme, UniProt P33294 1-670)
chain: MTEYYGTLQKRPLEQESVAEGNGGLESGKKARGDSDVFAARSPENEDVDVDADADVDADADADADAEEDAQKDILEETKADELDEVVDEYEEKEVSSNFNGTASDHVGITSSNTGSTALAASSADTNSGSGNGTGTMATNGTLSDRQYAPQKPEHPIKLERRSVSRKYVFPVISKEDSLNARSYLKQFGSARFLDDYLPEDLNSLYVYHMIKLLGFQIKDKELMLAIQEVVHNADNDDSLPQKNSSETKNVSDTYTATYPSPSFEDPLEKKHAVRLIKDLQKAMNKVLSTRIRLTNFHTIDDFVAKLKTAKKIIVLTGAGISTSLGIPDFRSSEGFYSKLGDLGLNDPQDVFSLEVFTEDPSVFYNIAHMVLPPENMYSPLHSFIKMIQDKDKLLRNYTQNIDNLESYAGVEPEKMVQCHGSFATASCVTCHWKIQGERIFPNIRNLQLPICPYCYSKRLEFFKTKTDEELADGEDDDMDDHHGRSVPKSFGVLKPDITFFGEALPSKFHRLIREDVLQCDLLICIGTSLKVAPVSEIVNMIPAHVPQVLINKDPVKHAEFDLSLLGLCDDVAALVAQKCGWDIPHDNWNKLKNKVFDSEEVERGVYKVHPLNESPAELEAEEEKHLPLQQSTAALTPPVSLSADSPGRSSSSSPQPPTQTDIANNQTST
